Laboratory results as given in patent US20070254324A1, “Method for determination of platelet function under flow conditions” (DADE BEHRING MARBURG GmbH, priority 2006, published 2007).
At least one structure is not confirmed: it was looked up by name or label, or the drawing left a doubt.

What was measured:
[1] = test system: platelet function in whole blood; test: Closure time under flow conditions, PFA-100 Col/Epi test cartridge; assay type: cell-based, human; conditions: normal untreated whole blood, 12.5 nM PGE1 or 1 μM forskolin
Procedure: (§1) Venous blood was taken from 11 healthy donors and anticoagulated with sodium citrate (3.2% buffered Na citrate).
(§2) Aliquots of the citrated whole blood sample were treated in vitro with the P2Y(12) antagonist MRS 2395 (Sigma-Aldrich Chemie GmbH, Steinheim, Germany). For this purpose an ethanolic MRS 2395 stock solution (15 mg/mL) was mixed with the whole blood samples so that an end concentration of 100 μmol/L was obtained.
(§3) Further aliquots of the citrated whole blood samples were treated in vitro with the COX-1 inhibitor acetylsalicylic acid (abbr.: ASA; Sigma-Aldrich Chemie GmbH, Steinheim, Germany). For this purpose an aqueous ASA stock solution (1 mg/mL) was mixed with whole blood samples so that an end concentration of 30 μmol/L was obtained. […]
(§4) Venous blood was taken from healthy donors and anticoagulated with sodium citrate (3.2% buffered Na citrate). […] Samples from 186 donors were determined in duplicate with a Col/Epi PFA-100® test cartridge [see Example 1d)] and a Col/ADP PFA-100® test cartridge [see Example 1d)].
(§5) The reference ranges (normal range) for the Col/Epi closure time and the Col/ADP closure time were established in that the measurement value ranges determined in which 90% of the measurement values for the healthy subjects were found (90% central interval of the normal distribution of all measurements). […]

[2] = test system: platelet function in whole blood; test: Closure time under flow conditions, PFA-100 Col/ADP test cartridge; assay type: cell-based, human; conditions: normal untreated whole blood, 12.5 nM PGE1 or 1 μM forskolin
Procedure: as §1, §2, §3, §4, §5

For C=C[C@@]1(C)CC(=O)[C@]2(O)[C@@]3(C)[C@@H](O)CCC(C)(C)[C@@H]3[C@H](O)[C@H](OC(C)=O)[C@@]2(C)O1 [forskolin], the “prolongation of the closure times of the controls” value [1] was “only a slight prolongation” and the “prolongation of the closure times of the controls” value [2] was “Neither the amount of forskolin used nor the amount of prostaglandin E1 used led to a significant prolongation”.
